Data on 16 targets can be found in the supplement of paper PMC10849652.

By UniProt entry, the sequences of proteins in these tests, tags left out. Where a name states a change or a piece, a line headed by the entry shows the natural chain unless it says otherwise.
UniProt O75528: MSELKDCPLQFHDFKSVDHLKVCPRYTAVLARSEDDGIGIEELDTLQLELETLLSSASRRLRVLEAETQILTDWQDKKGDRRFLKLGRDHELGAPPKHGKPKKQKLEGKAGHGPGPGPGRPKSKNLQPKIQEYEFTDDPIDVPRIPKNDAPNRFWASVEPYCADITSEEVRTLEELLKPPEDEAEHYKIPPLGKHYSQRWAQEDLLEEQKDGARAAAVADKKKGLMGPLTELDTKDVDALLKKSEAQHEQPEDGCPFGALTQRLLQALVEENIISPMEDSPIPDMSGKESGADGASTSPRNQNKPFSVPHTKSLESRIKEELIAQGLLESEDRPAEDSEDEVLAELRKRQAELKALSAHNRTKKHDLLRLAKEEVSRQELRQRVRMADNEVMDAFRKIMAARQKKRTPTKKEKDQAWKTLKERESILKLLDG
UniProt Q15527: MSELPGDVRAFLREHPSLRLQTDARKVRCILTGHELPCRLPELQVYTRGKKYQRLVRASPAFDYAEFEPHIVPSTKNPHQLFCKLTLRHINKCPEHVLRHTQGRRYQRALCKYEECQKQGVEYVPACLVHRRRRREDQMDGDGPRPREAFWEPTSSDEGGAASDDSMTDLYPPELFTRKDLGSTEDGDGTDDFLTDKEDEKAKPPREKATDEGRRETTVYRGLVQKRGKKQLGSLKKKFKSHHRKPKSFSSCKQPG
UniProt P50225: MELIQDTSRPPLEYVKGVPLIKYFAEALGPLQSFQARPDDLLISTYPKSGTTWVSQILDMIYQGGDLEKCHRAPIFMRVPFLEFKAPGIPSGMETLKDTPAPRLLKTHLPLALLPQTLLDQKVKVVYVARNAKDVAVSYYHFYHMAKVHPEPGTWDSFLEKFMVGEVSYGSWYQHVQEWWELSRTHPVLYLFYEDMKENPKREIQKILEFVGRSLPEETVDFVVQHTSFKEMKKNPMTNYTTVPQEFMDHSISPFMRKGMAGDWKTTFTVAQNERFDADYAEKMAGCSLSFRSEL
UniProt Q9BW92: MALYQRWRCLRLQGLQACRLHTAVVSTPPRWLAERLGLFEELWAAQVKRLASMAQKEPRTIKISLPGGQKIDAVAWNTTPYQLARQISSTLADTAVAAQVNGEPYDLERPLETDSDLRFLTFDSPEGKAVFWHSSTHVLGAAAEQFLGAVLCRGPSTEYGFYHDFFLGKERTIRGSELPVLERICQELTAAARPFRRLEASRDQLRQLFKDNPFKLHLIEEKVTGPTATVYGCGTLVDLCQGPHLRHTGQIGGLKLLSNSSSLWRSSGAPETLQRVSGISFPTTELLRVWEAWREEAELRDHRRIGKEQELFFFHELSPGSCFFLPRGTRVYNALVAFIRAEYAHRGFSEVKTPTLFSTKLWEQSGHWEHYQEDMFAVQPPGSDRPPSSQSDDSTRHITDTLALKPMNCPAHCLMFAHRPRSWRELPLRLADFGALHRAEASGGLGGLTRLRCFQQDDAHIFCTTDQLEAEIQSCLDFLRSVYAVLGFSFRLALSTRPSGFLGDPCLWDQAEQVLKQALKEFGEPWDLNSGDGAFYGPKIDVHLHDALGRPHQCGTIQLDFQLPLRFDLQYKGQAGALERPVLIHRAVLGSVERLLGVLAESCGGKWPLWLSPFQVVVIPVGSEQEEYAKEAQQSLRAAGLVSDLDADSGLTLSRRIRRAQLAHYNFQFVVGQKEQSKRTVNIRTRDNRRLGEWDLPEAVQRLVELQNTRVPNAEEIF
UniProt Q6UWL2: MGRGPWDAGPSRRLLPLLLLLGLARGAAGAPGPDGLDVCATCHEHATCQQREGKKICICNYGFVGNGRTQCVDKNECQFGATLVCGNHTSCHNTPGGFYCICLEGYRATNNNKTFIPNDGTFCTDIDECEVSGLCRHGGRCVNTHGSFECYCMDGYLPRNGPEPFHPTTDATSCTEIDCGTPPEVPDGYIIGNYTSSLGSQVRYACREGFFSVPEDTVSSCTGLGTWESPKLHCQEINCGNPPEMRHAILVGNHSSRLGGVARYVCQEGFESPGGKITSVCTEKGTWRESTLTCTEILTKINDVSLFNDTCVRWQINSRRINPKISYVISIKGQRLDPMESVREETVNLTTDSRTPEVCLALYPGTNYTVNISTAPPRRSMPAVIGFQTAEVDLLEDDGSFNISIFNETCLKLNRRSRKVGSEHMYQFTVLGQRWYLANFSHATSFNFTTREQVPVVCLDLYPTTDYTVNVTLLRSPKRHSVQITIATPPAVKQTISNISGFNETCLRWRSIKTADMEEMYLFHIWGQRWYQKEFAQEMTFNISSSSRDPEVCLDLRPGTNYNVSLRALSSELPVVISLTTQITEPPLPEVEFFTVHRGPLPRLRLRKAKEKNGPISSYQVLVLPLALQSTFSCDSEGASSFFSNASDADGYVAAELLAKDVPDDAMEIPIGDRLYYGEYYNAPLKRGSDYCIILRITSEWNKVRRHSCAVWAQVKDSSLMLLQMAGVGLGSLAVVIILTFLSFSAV
UniProt P53597: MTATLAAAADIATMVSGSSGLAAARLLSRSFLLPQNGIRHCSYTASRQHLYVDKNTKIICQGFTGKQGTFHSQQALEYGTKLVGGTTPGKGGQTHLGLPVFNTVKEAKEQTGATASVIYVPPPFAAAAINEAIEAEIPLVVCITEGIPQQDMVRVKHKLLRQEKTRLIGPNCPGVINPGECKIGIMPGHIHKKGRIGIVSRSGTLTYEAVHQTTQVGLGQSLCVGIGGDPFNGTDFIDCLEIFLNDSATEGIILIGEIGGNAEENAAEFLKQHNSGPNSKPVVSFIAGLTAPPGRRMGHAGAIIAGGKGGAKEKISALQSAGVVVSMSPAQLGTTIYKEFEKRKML
UniProt Q13395: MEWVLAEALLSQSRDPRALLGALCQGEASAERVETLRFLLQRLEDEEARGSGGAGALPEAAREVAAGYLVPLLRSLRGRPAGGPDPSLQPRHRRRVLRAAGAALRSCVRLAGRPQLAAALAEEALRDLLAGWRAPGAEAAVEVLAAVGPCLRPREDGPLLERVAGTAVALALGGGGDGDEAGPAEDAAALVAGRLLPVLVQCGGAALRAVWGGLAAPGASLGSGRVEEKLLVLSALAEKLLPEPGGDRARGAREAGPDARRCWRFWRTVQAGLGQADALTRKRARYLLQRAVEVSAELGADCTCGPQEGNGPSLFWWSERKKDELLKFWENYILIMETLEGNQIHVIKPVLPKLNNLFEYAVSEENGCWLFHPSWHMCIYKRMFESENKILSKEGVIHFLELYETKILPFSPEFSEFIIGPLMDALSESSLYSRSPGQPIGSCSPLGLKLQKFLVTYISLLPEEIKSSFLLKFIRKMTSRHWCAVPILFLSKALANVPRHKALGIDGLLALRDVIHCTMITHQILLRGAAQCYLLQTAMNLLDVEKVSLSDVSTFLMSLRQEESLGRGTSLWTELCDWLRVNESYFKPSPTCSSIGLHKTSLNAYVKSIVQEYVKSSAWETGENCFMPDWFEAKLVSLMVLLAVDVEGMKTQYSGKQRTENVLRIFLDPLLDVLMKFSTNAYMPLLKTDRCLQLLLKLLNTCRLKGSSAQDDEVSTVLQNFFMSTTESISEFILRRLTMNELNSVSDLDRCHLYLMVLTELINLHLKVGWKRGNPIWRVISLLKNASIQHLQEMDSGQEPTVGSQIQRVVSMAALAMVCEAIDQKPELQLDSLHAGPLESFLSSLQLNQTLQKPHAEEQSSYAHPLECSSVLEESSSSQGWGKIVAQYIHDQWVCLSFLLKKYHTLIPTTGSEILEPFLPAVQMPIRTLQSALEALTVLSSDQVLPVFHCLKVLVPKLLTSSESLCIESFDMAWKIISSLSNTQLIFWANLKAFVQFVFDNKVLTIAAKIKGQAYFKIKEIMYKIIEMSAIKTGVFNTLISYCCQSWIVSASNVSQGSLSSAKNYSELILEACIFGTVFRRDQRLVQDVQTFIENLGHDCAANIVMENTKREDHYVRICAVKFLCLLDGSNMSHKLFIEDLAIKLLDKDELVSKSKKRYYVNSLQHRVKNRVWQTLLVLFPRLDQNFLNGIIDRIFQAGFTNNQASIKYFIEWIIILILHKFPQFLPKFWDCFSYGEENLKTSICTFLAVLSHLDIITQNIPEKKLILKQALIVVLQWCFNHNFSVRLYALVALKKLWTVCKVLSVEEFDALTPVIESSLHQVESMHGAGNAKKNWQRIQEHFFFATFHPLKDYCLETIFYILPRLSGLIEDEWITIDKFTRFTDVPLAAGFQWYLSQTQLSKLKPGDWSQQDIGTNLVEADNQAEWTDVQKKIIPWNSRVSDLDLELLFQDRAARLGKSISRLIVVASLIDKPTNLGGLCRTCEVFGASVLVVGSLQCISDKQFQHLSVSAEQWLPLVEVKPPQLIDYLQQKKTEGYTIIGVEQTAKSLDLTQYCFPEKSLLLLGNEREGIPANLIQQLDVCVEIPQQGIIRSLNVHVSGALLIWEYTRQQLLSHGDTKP
UniProt Q9Y2K9: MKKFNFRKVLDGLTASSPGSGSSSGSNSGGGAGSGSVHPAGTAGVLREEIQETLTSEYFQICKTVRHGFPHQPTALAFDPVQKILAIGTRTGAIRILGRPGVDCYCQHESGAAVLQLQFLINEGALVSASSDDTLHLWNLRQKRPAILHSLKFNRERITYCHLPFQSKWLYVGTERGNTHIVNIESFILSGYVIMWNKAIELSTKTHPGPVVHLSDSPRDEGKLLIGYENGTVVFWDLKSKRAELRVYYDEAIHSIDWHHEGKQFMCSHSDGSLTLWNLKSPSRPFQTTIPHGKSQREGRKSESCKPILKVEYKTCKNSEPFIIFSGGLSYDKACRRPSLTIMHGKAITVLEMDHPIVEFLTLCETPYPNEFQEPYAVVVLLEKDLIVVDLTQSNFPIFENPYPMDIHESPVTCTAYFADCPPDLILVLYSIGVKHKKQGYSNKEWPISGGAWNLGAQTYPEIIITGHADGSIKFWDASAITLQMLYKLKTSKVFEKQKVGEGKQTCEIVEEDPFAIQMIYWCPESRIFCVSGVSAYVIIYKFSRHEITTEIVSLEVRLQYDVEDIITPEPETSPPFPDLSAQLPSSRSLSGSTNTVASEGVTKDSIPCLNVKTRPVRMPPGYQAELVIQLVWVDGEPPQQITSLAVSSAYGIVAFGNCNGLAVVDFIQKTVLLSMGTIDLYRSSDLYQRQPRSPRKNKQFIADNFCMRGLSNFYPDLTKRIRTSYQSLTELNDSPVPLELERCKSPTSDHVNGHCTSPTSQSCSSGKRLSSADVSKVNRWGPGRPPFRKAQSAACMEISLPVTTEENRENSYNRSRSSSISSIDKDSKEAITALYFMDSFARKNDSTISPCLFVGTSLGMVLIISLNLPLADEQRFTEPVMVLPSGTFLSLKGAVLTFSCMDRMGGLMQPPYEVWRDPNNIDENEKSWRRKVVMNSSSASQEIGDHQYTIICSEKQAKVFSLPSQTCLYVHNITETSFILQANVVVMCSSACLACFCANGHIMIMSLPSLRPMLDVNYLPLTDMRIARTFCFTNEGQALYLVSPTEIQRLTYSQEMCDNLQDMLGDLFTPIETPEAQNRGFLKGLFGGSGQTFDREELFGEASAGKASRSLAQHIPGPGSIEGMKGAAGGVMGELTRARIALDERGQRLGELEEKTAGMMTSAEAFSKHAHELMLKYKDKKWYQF
UniProt Q86VP1, whole entry, looked up: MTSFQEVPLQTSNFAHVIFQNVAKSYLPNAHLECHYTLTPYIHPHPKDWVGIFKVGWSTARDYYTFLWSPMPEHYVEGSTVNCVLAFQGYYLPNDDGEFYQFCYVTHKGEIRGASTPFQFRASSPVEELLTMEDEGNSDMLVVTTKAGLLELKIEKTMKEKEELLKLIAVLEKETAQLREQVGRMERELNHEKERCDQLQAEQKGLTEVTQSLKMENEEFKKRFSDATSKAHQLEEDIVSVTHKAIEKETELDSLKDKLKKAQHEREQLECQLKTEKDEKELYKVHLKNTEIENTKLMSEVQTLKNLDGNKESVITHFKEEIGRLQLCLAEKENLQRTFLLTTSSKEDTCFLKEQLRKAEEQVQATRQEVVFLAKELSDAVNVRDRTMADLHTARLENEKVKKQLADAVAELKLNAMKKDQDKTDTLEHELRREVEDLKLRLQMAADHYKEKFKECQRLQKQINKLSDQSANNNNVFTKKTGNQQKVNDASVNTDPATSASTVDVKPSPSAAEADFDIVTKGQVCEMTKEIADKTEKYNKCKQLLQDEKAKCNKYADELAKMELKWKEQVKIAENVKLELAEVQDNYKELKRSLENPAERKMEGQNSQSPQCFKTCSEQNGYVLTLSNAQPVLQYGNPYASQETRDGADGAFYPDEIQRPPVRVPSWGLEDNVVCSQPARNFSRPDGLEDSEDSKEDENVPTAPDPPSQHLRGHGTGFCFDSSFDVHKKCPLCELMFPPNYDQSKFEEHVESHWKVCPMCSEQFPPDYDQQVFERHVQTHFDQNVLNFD

The other results are listed elsewhere or left out.

Test in all cases: log2 fold change, soluble protein after heating vs DMSO (PISA); higher = thermal stabilisation; K562 cells, 10 uM, 30 min; active = over 0.2 and 3.5 SD of the protein, either way, in both replicates (recomputed)
Compound in experiment [1]: CC[C@@H]1C(=O)N(C)c2cnc(Nc3ccc(C(=O)NC4CCN(C)CC4)cc3OC)nc2N1C1CCCC1
The procedure, abridged: (§1)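 Soluble protein was defined as the supernatant after 21,000xg for 90 min. It came from K562 cells at 2×10^6 cells/mL given 10 μM compound for 30 min, heated in aliquots for 3 min across 48°C-58°C, pooled, and extracted in PBS with 0.5% NP-40 at 4°C, and was quantified by TMTpro 16plex LC-MS/MS with equalised channel sums. Thermal stability against control samples, from duplicates, is reported as log2 fold change.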

Compound in experiment [2]: CC[C@@H]1C(=O)N(C)c2cnc(Nc3ccc(C(=O)N[C@H]4CC[C@H](N5CCN(CC6CC6)CC5)CC4)cc3OC)nc2N1C(C)C [volasertib]
In a few lines: as §1

Compound in experiment [3]: CC[C@H](C)N1C=C(C2=C(C=C(C=C21)C3=CN=C(C=C3)N4CCNCC4)C(=O)NCC5=C(C=C(NC5=O)C)C)C
The procedure, abridged:
as §1

Compound in experiment [4]: CC[C@H](C)[C@@H](C(=O)N[C@@H]([C@@H](C)O)C(=O)N[C@@H](CC(C)C)C(=O)[C@]1(CO1)C)NC(=O)[C@H]([C@@H](C)CC)N(C)C(=O)C [epoxomicin]
In a few lines:
as §1

Compound in experiment [5]: CCn1c(C(=O)N(C2CC2)C2CC2)cc2c3c(ncn3C)c(Nc3cc(C)n(C)n3)nc21
In a few lines:
as §1

Compound in experiment [6]: CCn1cc(-c2ccnc3[nH]c(-c4cccc(CN(C)C)c4)cc23)c(-c2ccc(NC(=O)N(C)C)cc2)n1
The procedure, abridged:
as §1

Compound in experiment [7]: CN(C)CC(=O)Nc1ccc2[nH]c(=O)c3ccccc3c2c1
The procedure, abridged: as §1

Compound in experiment [8]: CN(CCOC1=CC=C(C=C1)C[C@H]2C(=O)NC(=O)S2)C3=CC=CC=N3 (racemic) [rosiglitazone]
The procedure, abridged:
as §1

Compound in experiment [9]: CN1C2=C(C3=C1C(=O)N(N=C3)CC4=CC(=CC=C4)N)SC(=C2)S(=O)C
In a few lines:
as §1

Compound in experiment [10]: CN1CCC(CNc2ccc3ncc(-c4cccc(OC(F)(F)F)c4)n3n2)CC1
The procedure, abridged:
as §1

Turning to TADA3 (UniProt O75528), the log2 fold change was inactive: 0.033 in experiment [1]; inactive: -0.037 in experiment [2]; inactive: 0.045 in experiment [3]; inactive: -0.026 in experiment [4]; inactive: 0.048 in experiment [5]; inactive: 0.046 in [6]. For the same target, the log2 fold change in experiment [7] was inactive: -0.027; in experiment [8], inactive: 0.058; in experiment [9] it was inactive: -0.025; in [10] it was inactive: -0.027.

Take TAPBP isoform 3 (UniProt O15533): the log2 fold change in experiment [1] is inactive: -0.062; in experiment [2] it was inactive: -0.058; in experiment [3], inactive: 0.046; in experiment [4] it was inactive: 0.119; in [5], inactive: -0.055; in experiment [6], inactive: -0.186. Also, the log2 fold change is inactive: 0.065 in experiment [7], inactive: 0.016 in experiment [8] and inactive: -0.144 in [10].

Take SYNGR2 (UniProt O43760): the log2 fold change is inactive: 0.034 in experiment [1]; inactive: 0.155 in experiment [2]; inactive: -0.085 in experiment [3]; inactive: 0.02 in experiment [4]; inactive: 0.013 in experiment [5]; inactive: 0.014 in [6]. Besides, the log2 fold change in experiment [7] is inactive: 0.04; in [8] it was inactive: -0.005; in experiment [9] it was inactive: 0.034; in [10] it was inactive: 0.039.

For the target SURF2 (UniProt Q15527), the log2 fold change is inactive: -0.002 in [1]; inactive: -0.046 in experiment [2]; inactive: 0.014 in [3]; inactive: 0.04 in [4]; inactive: -0.078 in experiment [6]; inactive: 0.037 in experiment [7]. Moreover, the log2 fold change in [9] is inactive: -0.043; in experiment [10] it was inactive: 0.024.

Regarding SULT1A1 (UniProt P50225), the log2 fold change in experiment [1] is inactive: -0.159; in experiment [2], active: -0.445; in experiment [3] it was inactive: 0.091; in experiment [4], inactive: 0.026; in experiment [6], inactive: -0.106; in experiment [7] it was inactive: 0.105. The log2 fold change in experiment [9] is inactive: 0.072; in experiment [10], inactive: -0.208.

On to TARS2 (UniProt Q9BW92), for which the log2 fold change in experiment [1] was inactive: -0.017; in experiment [2], inactive: -0.128; in experiment [3], inactive: 0.012; in experiment [4] it was inactive: 0.02; in experiment [6], inactive: -0.002; in [7] it was inactive: -0.019. The results for the log2 fold change in experiment [9] and in experiment [10] were inactive: -0.055 and inactive: -0.069, respectively.

Consider TANK (UniProt Q92844), for which the log2 fold change in experiment [1] is inactive: 0.057; in experiment [2] it was inactive: -0.105; in experiment [3], inactive: -0.064; in experiment [4], inactive: -0.021; in experiment [6] it was inactive: 0.074; in experiment [7] it was inactive: -0.012. For the same target, the log2 fold change in experiment [9] was inactive: -0.117; in experiment [10] it was inactive: -0.072.

As to SUSD1 isoform 2 (UniProt Q6UWL2), the log2 fold change in [1] is inactive: 0.17; in experiment [2], inactive: -0.183; in [3], inactive: 0.096; in [5], inactive: -0.08; in experiment [6], inactive: 0.038; in experiment [7] it was inactive: -0.174. In addition, the figures for the log2 fold change in [8], in experiment [9] and in experiment [10] were inactive: -0.032, inactive: -0.034 and inactive: 0.063, respectively.

SYF2 (UniProt O95926): the log2 fold change is inactive: 0.196 in experiment [1]; inactive: 0.174 in experiment [2]; inactive: -0.096 in [3]; inactive: 0.129 in [4]; inactive: 0.068 in [6]; inactive: -0.044 in [7]. Besides, the log2 fold change was inactive: 0.039 in experiment [9] and inactive: 0.187 in experiment [10].

Consider SUCLG1 (UniProt P53597), for which the log2 fold change in experiment [1] is inactive: 0.008; in [2], inactive: -0.044; in experiment [3], inactive: 0.063; in experiment [4] it was inactive: 0.031; in experiment [6], inactive: -0.012; in experiment [7], inactive: -0.027. The log2 fold change in experiment [9] is inactive: -0.041; in experiment [10], inactive: -0.097.

Regarding TARBP1 (UniProt Q13395), the log2 fold change was inactive: -0.022 in experiment [1]; active: -0.337 in experiment [2]; inactive: -0.107 in experiment [3]; inactive: 0.121 in experiment [4]; inactive: 0.077 in [6]; inactive: -0.012 in experiment [7]. For the same target, the log2 fold change in [9] was inactive: 0.001; in experiment [10], inactive: -0.027.

STXBP5L (UniProt Q9Y2K9): the log2 fold change in [1] was inactive: 0.124; in experiment [2] it was inactive: -0.261; in experiment [3] it was inactive: 0.078; in [5] it was inactive: 0.089; in experiment [6] it was inactive: -0.138; in experiment [9], inactive: -0.034. In addition, the log2 fold change in experiment [10] was inactive: -0.119.

Turning to SUCO (UniProt Q9UBS9), the log2 fold change is inactive: 0.02 in experiment [1]; inactive: -0.115 in [2]; inactive: -0.02 in experiment [4]; inactive: -0.06 in experiment [5]; inactive: 0.021 in experiment [6]; inactive: -0.087 in experiment [7]. Moreover, the log2 fold change in experiment [9] was inactive: 0.148; in [10], inactive: 0.021.

Regarding SYNE2 isoform 2 (UniProt Q8WXH0), the log2 fold change in [1] was inactive: 0.039; in [2], inactive: -0.025; in [3], inactive: -0.145; in experiment [6], inactive: -0.274; in experiment [7], inactive: -0.044; in experiment [9], inactive: -0.021. For the same target, the log2 fold change in [10] was inactive: -0.025.

For the target STRN (UniProt O43815), the log2 fold change in experiment [1] is inactive: -0.031; in [2] it was inactive: -0.031; in [3] it was inactive: 0.026; in experiment [4], inactive: 0.046; in experiment [6], inactive: -0.046; in experiment [7] it was inactive: 0.02. For the same target, the figures for the log2 fold change in experiment [9] and in experiment [10] were inactive: -0.031 and inactive: 0.073, respectively.

As to TAX1BP1 (UniProt Q86VP1), the log2 fold change in experiment [1] was inactive: -0.144; in [2], active: -0.298; in experiment [3], inactive: -0.081; in [4] it was inactive: -0.027; in experiment [6], inactive: -0.067; in [7], inactive: 0. Further, the log2 fold change in experiment [9] was inactive: -0.001; in [10], inactive: 0.003.
